In PMC12178783:
No constants are given. Whether binding was seen depends on the method and setting. In cells and extracts the contact can be indirect. Some binding calls cover weakened binding; strength is not graded here.

By UniProt entry, the sequences of proteins in these tests, tags left out. Residues count along the entry.
UniProt P54762, residues 18-984: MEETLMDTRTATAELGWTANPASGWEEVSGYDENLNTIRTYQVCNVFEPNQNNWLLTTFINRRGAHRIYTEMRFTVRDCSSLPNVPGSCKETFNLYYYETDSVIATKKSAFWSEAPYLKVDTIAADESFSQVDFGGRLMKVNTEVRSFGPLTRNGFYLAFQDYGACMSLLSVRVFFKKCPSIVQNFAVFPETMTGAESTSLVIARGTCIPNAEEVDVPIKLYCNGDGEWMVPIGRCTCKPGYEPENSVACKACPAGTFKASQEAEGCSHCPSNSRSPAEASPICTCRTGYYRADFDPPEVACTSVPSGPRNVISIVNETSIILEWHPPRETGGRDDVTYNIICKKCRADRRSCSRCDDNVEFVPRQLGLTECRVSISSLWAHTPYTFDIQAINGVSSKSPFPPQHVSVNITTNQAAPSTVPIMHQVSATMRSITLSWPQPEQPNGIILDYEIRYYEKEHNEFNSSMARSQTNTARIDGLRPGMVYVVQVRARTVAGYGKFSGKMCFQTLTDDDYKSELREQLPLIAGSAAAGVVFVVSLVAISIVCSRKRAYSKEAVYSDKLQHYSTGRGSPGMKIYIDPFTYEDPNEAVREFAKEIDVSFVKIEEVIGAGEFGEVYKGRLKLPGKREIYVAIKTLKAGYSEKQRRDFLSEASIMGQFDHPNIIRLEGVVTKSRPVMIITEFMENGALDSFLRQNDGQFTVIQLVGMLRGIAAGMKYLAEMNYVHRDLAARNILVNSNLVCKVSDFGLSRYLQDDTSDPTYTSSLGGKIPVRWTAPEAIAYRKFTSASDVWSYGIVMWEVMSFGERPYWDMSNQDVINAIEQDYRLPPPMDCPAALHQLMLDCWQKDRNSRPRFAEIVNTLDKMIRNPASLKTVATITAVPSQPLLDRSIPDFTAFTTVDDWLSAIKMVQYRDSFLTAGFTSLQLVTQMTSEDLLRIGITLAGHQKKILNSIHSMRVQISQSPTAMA
UniProt P49841: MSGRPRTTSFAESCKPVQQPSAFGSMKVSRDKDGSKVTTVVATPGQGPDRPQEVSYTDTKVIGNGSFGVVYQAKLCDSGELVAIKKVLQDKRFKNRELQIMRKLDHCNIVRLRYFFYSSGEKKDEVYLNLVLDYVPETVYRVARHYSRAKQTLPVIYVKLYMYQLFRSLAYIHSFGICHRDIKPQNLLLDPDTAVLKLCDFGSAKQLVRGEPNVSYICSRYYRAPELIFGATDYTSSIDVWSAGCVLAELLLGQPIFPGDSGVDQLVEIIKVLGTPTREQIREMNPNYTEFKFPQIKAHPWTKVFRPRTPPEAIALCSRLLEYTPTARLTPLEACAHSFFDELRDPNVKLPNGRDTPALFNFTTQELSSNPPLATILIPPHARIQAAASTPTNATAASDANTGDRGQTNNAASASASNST

Biological target: EPH receptor B1 (EPHB1) protein (human (endogenous in the paper's human prostate cell lines)) (UniProt P54762)
Experiment: co-IP; RIPA lysate of cultured cells with phosphatase and protease inhibitors; anti-EPHB1 or anti-GSK3B antibody loaded on Protein A/G magnetic beads; beads washed five times; SDS-PAGE and western blot

binding: binds
Substance: Glycogen Synthase Kinase 3 Beta (GSK3B) protein (from UniProt P49841 1-420) (enzyme)
